From article PMC12847986

Biological target: T1, C2b (large fragment of C2, VWA-SP) with S679A (human) (UniProt P06681)
T1 sequence: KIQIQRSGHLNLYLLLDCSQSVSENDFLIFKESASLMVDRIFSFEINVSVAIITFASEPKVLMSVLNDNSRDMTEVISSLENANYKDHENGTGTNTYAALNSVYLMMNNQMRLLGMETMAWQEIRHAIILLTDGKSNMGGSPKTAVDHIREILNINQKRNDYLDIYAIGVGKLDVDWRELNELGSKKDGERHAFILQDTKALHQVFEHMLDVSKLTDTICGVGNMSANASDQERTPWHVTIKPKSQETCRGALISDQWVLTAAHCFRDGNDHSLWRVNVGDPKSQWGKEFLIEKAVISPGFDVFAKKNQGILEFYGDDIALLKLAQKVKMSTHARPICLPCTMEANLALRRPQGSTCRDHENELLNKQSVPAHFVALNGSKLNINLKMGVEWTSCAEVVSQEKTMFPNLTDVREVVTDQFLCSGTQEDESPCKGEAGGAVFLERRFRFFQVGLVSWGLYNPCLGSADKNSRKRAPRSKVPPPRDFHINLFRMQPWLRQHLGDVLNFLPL
Test: cryo-EM structure; SEC-purified C4b-C3 duo-nanobody complex, C2(S679A) and activated C1s(DDDDK) mixed 25:5:1 by volume, 30 sec at room temperature; 20 mM HEPES pH 7.4, 150 mM NaCl, 2 mM MgCl2; C4b2b (4.2 A) and C4b2b-C3 (3.5 A) maps from the same data set; both purified

Substance: complement C3 (human)
- binding: binds

Results are given in words; binding and its absence hold for the method and conditions named. Binding calls can cover weak binding; strength is not graded here.
